These are yes or no findings as the source states them, for the method shown. Some binding calls cover weakened binding; strength is not graded here. Blank lines part the entries; values can stand above or below the binder they belong to.
Target: T1, Smc6-TAP (S. cerevisiae) (UniProt Q12749)
T1 sequence: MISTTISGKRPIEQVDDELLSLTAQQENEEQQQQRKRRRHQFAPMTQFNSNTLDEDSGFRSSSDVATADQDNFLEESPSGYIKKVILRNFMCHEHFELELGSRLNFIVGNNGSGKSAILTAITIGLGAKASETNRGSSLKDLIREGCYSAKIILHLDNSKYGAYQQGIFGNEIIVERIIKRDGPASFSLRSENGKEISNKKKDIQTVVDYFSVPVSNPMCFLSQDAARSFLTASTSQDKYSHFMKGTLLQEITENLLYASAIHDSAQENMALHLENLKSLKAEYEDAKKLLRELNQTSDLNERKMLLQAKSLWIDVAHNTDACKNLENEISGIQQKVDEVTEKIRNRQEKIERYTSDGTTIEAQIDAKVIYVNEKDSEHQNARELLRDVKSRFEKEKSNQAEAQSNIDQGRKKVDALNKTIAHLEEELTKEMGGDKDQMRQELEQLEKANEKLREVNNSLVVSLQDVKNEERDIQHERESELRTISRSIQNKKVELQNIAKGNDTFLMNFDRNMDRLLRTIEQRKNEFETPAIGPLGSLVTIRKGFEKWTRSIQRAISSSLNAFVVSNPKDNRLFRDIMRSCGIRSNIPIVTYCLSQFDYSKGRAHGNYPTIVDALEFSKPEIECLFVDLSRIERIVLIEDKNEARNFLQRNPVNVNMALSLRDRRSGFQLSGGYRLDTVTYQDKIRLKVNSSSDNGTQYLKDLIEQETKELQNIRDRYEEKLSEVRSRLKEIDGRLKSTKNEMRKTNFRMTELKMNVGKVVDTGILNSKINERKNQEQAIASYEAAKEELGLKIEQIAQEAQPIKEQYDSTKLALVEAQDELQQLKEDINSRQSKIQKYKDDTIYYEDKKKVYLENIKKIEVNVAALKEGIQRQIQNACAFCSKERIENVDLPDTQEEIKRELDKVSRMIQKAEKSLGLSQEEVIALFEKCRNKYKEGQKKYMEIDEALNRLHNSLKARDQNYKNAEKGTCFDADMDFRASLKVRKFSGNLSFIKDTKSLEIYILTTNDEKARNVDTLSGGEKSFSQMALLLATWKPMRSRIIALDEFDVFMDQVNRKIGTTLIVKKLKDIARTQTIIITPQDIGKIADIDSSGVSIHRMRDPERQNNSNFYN
Assay: tandem affinity purification + SEC; subunits co-overexpressed in S. cerevisiae; complex purified through Smc6-TAP (IgG Sepharose, TEV protease, calmodulin Sepharose, 500 mM NaCl buffers), then Superose 6 Increase 10/300 GL in STO500 buffer and SDS-PAGE of the fractions (octamer and hexamer)

B1: Nse2 (protein, UniProt P38632 1-267)
chain: MALNDNPIPKSVPLHPKSGKYFHNLHARDLSNIYQQCYKQIDETINQLVDSTSPSTIGIEEQVADITSTYKLLSTYESESNSFDEHIKDLKKNFKQSSDACPQIDLSTWDKYRTGELTAPKLSELYLNMPTPEPATMVNNTDTLKILKVLPYIWNDPTCVIPDLQNPADEDDLQIEGGKIELTCPITCKPYEAPLISRKCNHVFDRDGIQNYLQGYTTRDCPQAACSQVVSMRDFVRDPIMELRCKIAKMKESQEQDKRSSQAIDVL
binding: binds

B4: Nse3 (protein, UniProt Q05541 1-303)
chain: MSSIDNDSDVDLTEDLAVAKIVKENPVARKMVRYILSRGESQNSIITRNKLQSVIHEAAREENIAKPSFSKMFMDINAILYNVYGFELQGLPSKNNMNAGGNGSNSNTNKSMPEPLGHRAQKFILLNNVPHSKNFDDFKILQSAHTYEELIVTGEYIGDDIASGTSNTLESKLSTDRDLVYKGVLSVILCIVFFSKNNILHQELIKFLETFGIPSDGSKIAILNITIEDLIKSLEKREYIVRLEEKSDTDGEVISYRIGRRTQAELGLESLEKLVQEIMGLEKEQTKSLHDDIIKSIGDSYSI
binding: binds

B6: Nse1 (protein, UniProt Q07913 1-336)
chain: MEVHEEQVSAPVTGDATAKYLLQYILSARGICHENALILALMRLETDASTLNTEWSIQQWVDKLNDYINAINVKLNLLGYKIIRINHGIGRNAVTLKAKQNFESFEDNTAIRAHNNDYAVLQSIVLPESNRFFVYVNLASTEETKLATRFNQNEIEFMKWAIEQFMISGETIVEGPALETSIIVKEVNRILVAATGDSNLAKWRKFSTFTVGSTNLFQFQELTATDIEDLLLRLCELKWFYRTQEGKFGIDLRCIAELEEYLTSMYNLNTCQNCHKLAIQGVRCGNESCREENEETGENSLSQIWHVDCFKHYITHVSKNCDRCGSSLITEGVYVI
binding: binds

Results, then the binder that gave them:

binding: binds
B2: Nse4 (protein, UniProt P43124 1-402)
chain: MSSTVISRKRRNSTVTEPDSSGETRKQKKSRSDEKSSSSKDGDPQLEFKVLQGYRDLESEMHKGRAQVTRTGDIGVAMDNLNAVDSLFNKVIGIKNNGLFAHDARAMVSISELAQISVRNLKFDDSRSMVNLENIVNSLKRYMLKEHFKLNNIAENRNDLTLAADEQSAADQQEESDGDIDRTPDDNHTDKATSSFKATSMRHSYLQQFSHYNEFSQFNWFRIGALYNTISKNAPITDHLMGPLSIEKKPRVLTQRRRNNDQVGEKITAEKITQHSLNSTQQETTPEQVKKCFKKLSKKLGPEGSINLFKFIIDPNSFSRSIENLFYTSFLIKEGKLLMEHDEEGLPTIKIKQSISHTDSRSKEIERQRRRAAHQNHIIFQMDMPTWRKLIKKYNITSPFLD

binding: binds
B3: Smc5 (protein, UniProt Q08204 1-1093)
chain: MTSLIDLGRYVERTHHGEDTEPRSKRVKIAKPDLSSFQPGSIIKIRLQDFVTYTLTEFNLSPSLNMIIGPNGSGKSTFVCAVCLGLAGKPEYIGRSKKVEDFIKNGQDVSKIEITLKNSPNVTDIEYIDARDETIKITRIITRSKRRSDYLINDYQVSESVVKTLVAQLNIQLDNLCQFLSQERVEEFARLKSVKLLVETIRSIDASLLDVLDELRELQGNEQSLQKDLDFKKAKIVHLRQESDKLRKSVESLRDFQNKKGEIELHSQLLPYVKVKDHKEKLNIYKEEYERAKANLRAILKDKKPFANTKKTLENQVEELTEKCSLKTDEFLKAKEKINEIFEKLNTIRDEVIKKKNQNEYYRGRTKKLQATIISTKEDFLRSQEILAQTHLPEKSVFEDIDIKRKEIINKEGEIRDLISEIDAKANAINHEMRSIQRQAESKTKSLTTTDKIGILNQDQDLKEVRDAVLMVREHPEMKDKILEPPIMTVSAINAQFAAYLAQCVDYNTSKALTVVDSDSYKLFANPILDKFKVNLRELSSADTTPPVPAETVRDLGFEGYLSDFITGDKRVMKMLCQTSKIHTIPVSRRELTPAQIKKLITPRPNGKILFKRIIHGNRLVDIKQSAYGSKQVFPTDVSIKQTNFYQGSIMSNEQKIRIENEIINLKNEYNDRKSTLDALSNQKSGYRHELSELASKNDDINREAHQLNEIRKKYTMRKSTIETLREKLDQLKREARKDVSQKIKDIDDQIQQLLLKQRHLLSKMASSMKSLKNCQKELISTQILQFEAQNMDVSMNDVIGFFNEREADLKSQYEDKKKFVKEMRDTPEFQSWMREIRSYDQDTKEKLNKVAEKYEEEGNFNLSFVQDVLDKLESEIAMVNHDESAVTILDQVTAELRELEHTVPQQSKDLETIKAKLKEDHAVLEPKLDDIVSKISARFARLFNNVGSAGAVRLEKPKDYAEWKIEIMVKFRDNAPLKKLDSHTQSGGERAVSTVLYMIALQEFTSAPFRVVDEINQGMDSRNERIVHKAMVENACAENTSQYFLITPKLLTGLHYHEKMRIHCVMAGSWIPNPSEDPKMIHFGETSNYSFD

binding: binds
B5: Nse5 (protein, UniProt Q03718 1-556)
chain: MDGALINSVLYVSPRNGAHYFVELTEKHLLAFEMLNSMCLLENYDHVLLFLECQFGKSHNLAVIPFDIILVLFTLSTLSEYYKEPILRANDPYNTSRETLSRRALKLLQKYLAILKEFDSEQYNLYDLELLRCQFFLAIDTLTPKKQKWGFDRFRRTKSESGVTYRQNASVDPELDQAKTFKNPYRSYISCLEQRNTILGNRLLNLKLNEPGEFINMILWTLSNSLQESTPLFLSSHEIWMPLLEILIDLFSCRQDYFIQHEVAQNVSKSLFVQRLSESPLAVFFESLNTRNFANRFSEYVFLNCDYKLPSDNYATPVHPVYNGENTIVDTYIPTIKCSPLYKSQKSLALRRKLIGSCFKLLLRVPDGHRLITPRIVADDVIQGISRTLASFNDILQFKKFFMTENLSQESYFIPLLAEGTLSEILKDTQECVVILTLVENLSDGVSFCNEVIGLVKSKCFAFTEQCSQASYEEAVLNIEKCDVCLLVLLRYLLHLIGTEAILDAKEQLEMLHAIEKNDSGRRQWAKALNLGNDPPLLYPIVSQMFGVHDKSVIIE

— publication PMC10132971
